Experimental data published in the supplement of paper PMC11006884.
This is a selection; strong and weak results do not stand in their true shares.

By UniProt entry, the sequences of proteins in these tests, tags left out. Where a name states a change or a piece, a line headed by the entry shows the natural chain unless it says otherwise.
UniProt O14654: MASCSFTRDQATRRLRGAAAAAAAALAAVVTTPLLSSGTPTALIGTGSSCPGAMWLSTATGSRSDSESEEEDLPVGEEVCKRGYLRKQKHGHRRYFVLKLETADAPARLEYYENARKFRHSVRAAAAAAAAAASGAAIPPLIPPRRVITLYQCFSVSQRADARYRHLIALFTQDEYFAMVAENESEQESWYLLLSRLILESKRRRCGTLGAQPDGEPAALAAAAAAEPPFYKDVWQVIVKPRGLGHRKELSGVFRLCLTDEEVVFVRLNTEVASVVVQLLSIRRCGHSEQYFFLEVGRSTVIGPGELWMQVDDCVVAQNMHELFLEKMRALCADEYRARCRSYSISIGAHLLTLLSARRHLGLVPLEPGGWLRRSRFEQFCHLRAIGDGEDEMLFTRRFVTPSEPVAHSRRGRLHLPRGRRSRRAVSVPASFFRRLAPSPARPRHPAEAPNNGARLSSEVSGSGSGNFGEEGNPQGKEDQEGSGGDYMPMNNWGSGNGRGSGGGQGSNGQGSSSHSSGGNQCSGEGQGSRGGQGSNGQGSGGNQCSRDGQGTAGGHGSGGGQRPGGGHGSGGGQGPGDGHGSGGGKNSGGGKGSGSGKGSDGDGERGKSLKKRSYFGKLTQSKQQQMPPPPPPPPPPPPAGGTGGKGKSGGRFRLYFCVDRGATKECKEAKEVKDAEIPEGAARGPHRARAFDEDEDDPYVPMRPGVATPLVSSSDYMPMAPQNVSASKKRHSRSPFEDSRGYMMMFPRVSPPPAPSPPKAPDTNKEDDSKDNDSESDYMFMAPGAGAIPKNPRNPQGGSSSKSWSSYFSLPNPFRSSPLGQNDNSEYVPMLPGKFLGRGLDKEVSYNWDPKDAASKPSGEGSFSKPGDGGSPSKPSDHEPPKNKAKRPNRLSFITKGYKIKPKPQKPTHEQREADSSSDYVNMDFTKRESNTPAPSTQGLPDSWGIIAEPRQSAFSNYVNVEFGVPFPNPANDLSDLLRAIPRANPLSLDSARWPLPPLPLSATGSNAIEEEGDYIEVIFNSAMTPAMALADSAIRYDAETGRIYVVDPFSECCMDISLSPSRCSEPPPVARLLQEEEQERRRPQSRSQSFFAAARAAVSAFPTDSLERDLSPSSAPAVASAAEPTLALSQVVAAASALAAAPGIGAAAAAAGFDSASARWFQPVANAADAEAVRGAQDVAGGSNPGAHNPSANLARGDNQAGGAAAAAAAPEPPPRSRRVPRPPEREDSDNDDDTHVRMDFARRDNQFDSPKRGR
UniProt O15446, whole entry, looked up: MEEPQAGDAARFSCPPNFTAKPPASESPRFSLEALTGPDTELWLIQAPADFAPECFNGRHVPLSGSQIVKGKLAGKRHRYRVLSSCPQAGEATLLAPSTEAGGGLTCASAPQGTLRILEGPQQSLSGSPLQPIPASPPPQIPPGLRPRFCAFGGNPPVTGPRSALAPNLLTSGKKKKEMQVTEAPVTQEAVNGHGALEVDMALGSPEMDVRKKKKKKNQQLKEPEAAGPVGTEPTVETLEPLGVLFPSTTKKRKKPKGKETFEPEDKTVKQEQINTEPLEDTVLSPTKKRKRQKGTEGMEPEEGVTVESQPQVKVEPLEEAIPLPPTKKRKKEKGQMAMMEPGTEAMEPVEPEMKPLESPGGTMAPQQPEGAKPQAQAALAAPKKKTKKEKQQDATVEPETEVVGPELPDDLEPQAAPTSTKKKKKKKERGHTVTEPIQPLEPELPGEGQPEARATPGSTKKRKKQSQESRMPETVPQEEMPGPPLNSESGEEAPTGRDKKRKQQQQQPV
UniProt O14893: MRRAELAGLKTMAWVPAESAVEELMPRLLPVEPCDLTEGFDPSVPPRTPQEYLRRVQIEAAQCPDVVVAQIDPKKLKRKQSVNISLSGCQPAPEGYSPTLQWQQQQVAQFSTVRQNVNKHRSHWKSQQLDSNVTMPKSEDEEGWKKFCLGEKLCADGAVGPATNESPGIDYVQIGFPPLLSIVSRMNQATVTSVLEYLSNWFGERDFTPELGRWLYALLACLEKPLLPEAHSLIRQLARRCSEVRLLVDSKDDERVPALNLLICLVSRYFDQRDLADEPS
UniProt O00743: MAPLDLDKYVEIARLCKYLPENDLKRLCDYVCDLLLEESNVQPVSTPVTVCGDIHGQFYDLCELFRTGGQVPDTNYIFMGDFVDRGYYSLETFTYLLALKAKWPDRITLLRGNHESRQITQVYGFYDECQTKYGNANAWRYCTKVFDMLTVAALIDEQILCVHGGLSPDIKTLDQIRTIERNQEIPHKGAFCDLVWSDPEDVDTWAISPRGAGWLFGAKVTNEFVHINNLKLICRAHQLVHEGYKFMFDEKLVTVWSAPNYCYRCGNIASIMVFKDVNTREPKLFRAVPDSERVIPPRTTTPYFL
UniProt O00330, whole entry: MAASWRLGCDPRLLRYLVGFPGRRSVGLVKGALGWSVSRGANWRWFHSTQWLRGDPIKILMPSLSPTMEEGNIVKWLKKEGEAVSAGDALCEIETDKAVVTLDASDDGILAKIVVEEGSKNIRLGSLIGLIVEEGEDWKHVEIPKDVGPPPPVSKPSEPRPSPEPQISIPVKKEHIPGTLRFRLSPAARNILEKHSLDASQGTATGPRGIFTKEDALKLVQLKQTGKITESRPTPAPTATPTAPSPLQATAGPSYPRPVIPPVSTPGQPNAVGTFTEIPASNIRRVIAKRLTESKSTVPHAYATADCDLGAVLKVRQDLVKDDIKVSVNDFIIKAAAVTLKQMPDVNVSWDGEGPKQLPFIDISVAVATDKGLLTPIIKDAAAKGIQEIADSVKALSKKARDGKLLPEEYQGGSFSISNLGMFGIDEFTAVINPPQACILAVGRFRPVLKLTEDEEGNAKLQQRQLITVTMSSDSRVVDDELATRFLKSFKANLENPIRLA
UniProt O14980, whole entry, looked up: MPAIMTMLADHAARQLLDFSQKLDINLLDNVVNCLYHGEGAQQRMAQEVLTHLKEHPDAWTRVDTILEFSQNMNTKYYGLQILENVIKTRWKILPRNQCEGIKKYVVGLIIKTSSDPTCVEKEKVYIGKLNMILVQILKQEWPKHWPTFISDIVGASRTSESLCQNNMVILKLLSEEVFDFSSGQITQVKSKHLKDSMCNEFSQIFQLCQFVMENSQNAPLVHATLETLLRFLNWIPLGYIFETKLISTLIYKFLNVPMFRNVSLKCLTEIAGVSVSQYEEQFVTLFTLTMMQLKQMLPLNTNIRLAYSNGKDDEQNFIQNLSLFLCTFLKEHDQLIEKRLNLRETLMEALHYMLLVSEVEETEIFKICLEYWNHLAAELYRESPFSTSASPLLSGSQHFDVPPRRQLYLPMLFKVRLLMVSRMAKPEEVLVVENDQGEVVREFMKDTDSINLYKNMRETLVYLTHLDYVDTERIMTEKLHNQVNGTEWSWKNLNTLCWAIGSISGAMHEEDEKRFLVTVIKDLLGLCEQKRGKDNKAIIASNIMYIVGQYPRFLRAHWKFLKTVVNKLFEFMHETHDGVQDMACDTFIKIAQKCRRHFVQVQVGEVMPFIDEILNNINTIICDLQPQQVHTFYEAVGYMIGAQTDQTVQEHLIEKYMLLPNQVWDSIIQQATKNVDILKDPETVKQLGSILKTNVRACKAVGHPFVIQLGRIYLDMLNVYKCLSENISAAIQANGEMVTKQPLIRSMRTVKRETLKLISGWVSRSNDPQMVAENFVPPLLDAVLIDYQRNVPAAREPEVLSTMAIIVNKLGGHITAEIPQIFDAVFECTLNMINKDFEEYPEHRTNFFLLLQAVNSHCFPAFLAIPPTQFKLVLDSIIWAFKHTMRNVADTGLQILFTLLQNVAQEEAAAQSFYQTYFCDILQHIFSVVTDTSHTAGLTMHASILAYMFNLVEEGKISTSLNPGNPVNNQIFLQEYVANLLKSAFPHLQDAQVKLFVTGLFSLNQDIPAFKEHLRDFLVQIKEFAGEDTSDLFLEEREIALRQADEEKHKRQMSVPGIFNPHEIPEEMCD
UniProt O00469: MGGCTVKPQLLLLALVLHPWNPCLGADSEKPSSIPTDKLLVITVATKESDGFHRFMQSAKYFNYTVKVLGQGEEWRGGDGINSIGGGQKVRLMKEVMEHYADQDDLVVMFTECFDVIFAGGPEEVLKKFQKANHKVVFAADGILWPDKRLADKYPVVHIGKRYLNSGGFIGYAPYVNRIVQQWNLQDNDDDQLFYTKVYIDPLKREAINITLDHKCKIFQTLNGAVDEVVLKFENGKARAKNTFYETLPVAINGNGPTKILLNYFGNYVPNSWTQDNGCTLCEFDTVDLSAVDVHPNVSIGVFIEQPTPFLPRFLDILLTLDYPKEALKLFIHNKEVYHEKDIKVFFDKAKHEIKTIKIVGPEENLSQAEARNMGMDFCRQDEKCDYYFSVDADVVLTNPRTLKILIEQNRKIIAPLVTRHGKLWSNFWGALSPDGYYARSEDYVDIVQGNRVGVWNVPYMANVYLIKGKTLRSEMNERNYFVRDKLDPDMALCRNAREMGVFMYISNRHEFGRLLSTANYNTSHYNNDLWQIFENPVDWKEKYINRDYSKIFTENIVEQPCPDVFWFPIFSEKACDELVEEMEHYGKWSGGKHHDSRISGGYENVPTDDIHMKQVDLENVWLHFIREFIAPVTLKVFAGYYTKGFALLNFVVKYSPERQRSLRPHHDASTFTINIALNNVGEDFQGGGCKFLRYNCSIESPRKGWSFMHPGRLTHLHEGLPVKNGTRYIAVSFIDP
UniProt O15304: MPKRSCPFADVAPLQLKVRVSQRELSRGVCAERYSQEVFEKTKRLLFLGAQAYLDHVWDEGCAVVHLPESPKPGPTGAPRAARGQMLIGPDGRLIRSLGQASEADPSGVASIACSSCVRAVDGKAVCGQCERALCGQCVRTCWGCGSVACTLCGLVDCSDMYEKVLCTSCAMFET
UniProt O00429, whole entry, looked up: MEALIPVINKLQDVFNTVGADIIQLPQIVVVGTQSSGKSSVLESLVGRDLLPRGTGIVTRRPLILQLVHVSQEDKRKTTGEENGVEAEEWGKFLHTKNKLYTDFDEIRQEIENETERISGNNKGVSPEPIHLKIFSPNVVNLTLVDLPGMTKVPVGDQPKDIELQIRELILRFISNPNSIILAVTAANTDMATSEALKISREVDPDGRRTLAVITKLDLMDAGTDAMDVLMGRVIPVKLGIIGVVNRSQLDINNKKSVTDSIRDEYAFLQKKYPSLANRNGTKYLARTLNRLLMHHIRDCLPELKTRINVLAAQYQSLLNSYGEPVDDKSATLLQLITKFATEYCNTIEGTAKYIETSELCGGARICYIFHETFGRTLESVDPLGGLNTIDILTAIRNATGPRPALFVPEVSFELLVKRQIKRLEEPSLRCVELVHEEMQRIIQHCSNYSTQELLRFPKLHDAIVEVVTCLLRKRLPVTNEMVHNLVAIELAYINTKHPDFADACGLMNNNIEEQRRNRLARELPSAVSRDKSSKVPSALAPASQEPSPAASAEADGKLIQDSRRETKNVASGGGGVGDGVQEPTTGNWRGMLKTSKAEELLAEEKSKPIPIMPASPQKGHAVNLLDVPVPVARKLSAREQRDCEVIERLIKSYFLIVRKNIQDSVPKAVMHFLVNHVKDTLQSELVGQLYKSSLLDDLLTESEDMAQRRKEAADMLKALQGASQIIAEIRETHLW
UniProt O14744, whole entry, looked up: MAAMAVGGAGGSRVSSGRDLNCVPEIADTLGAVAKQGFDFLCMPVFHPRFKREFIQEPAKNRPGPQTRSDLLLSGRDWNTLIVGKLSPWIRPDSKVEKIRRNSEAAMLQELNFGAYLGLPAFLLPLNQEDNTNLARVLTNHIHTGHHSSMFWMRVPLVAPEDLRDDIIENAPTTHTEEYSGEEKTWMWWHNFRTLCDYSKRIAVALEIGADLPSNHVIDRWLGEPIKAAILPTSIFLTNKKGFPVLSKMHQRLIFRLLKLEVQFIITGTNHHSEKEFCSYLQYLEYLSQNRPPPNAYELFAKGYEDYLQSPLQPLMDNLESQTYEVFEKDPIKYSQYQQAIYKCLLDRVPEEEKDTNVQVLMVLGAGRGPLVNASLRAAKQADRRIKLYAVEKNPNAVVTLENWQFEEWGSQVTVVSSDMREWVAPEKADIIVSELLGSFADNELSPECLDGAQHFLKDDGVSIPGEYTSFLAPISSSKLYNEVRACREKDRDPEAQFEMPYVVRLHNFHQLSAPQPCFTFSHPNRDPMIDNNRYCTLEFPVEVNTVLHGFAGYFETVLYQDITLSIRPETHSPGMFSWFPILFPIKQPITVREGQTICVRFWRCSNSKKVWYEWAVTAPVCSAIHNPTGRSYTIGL

Compound: COC(=O)C#Cc1ccccc1 [methyl 3-phenylpropiolate]
Experiment: log2 ratio of iodoacetamide-alkyne labeling of the cysteine site, DMSO over compound (competition); higher = stronger covalent engagement of the cysteine by the compound, active = 1 or more
Conditions: 500 µM; treatment time 1 h; system: HEK293T cell lysate
Outline: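 HEK293T lysate at 2 mg/mL was treated with vehicle or electrophile (500 µM) for 1 h at ambient temperature, then labelled with iodoacetamide alkyne (1 h), clicked to sCIP-TMT reagents, pooled, digested with trypsin overnight at 37 °C, enriched on streptavidin and eluted with acid. Peptides were analysed by Orbitrap Eclipse LC-MS/MS with FAIMS and quantified in FragPipe, using duplicate channels and three replicates, with cysteines quantified in only one replicate excluded. The log2 competition ratio for each cysteine is the mean control-channel reporter intensity divided by the mean compound-channel reporter intensity.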

| Target | log2 ratio of iodoacetamide-alkyne labeling |
| --- | --- |
| UniProt A6NJ78_C172 | inactive: 0.419 |
| SPTBN2 C2070 (UniProt O15020) | inactive: 0.506 |
| UniProt O14628_C178 | active: 1.09 |
| ANKRD28 C701 (UniProt O15084) | inactive: 0.336 |
| IRS4 C314 (UniProt O14654) | inactive: 0.142 |
| BCAT2 C342 (UniProt O15382) | inactive: -0.00145 |
| PHGDH C295 (UniProt O43175) | inactive: 0.0411 |
| ARHGAP6 C769 (UniProt O43182) | inactive: 0.557 |
| TXNDC9 C94 (UniProt O14530) | inactive: -0.0861 |
| CD3EAP C86 (UniProt O15446) | inactive: 0.236 |
| GEMIN2 C34 (UniProt O14893) | inactive: 0.0131 |
| PPP6C C192 (UniProt O00743) | inactive: 0.347 |
| PDHX C307 (UniProt O00330) | inactive: 0.254 |
| UniProt O43159_C332 | inactive: 0.0124 |
| CLIC1 C223 (UniProt O00299) | inactive: -0.133 |
| UniProt O43159_C451 | inactive: 0.417 |
| MGST3 C131 (UniProt O14880) | inactive: 0.00345 |
| PFAS C1285 (UniProt O15067) | active: 1.36 |
| IRS4 C206 (UniProt O14654) | inactive: 0.518 |

Reformatted: results already given.
Target	log2 ratio of iodoacetamide-alkyne labeling
UniProt A6NJ78_C172	inactive: 0.419
SPTBN2 C2070 (UniProt O15020)	inactive: 0.506

Continued:

| Target | log2 ratio of iodoacetamide-alkyne labeling |
| --- | --- |
| PES1 C272 (UniProt O00541) | inactive: 0.915 |
| XPO1 C1070 (UniProt O14980) | inactive: 0.0562 |
| DFFA C165 (UniProt O00273) | inactive: 0.146 |
| PLOD2 C494 (UniProt O00469) | inactive: 0.723 |
| IGF2BP3 C194 (UniProt O00425) | inactive: 0.154 |
| INPPL1 C5 (UniProt O15357) | inactive: 0.416 |
| UniProt O00567_C472 | inactive: 0.365 |
| UniProt O15042_C624 | inactive: 0.461 |
| SIVA1 C6 (UniProt O15304) | active: 1.88 |
| APAF1 C258 (UniProt O14727) | inactive: 0.0065 |
| INPPL1 C1187 (UniProt O15357) | inactive: 0.564 |
| PHGDH C18 (UniProt O43175) | inactive: 0.0299 |
| DYNC1LI2 C191 (UniProt O43237) | inactive: 0.441 |
| ZZEF1 C69 (UniProt O43149) | inactive: 0.129 |
| DNM1L C361 (UniProt O00429) | inactive: 0.736 |
| EIF3D C437 (UniProt O15371) | inactive: -0.116 |
| UniProt O14972_C243 | inactive: 0.293 |
| PRMT5 C42 (UniProt O14744) | inactive: -0.126 |
| NVL C192 (UniProt O15381) | inactive: 0.306 |
